# Experiment: Diffusion testing (dye leaching from dyed tresses into water, UV-vis absorbance)
# Conditions: normalized absorbance
# Procedure: The compositions tested were formulated by mixing a tint component according to the formulation below with a developer component in a 1:1 ratio. The developer component is a commercially available Welloxon developer at 6% (20 vol) peroxide concentration. In all the tests, white hair was used (1.5 g tresses). 3 g tint component+3 g developer component were applied for each switch for 30 minutes at 30° C. The tresses were rinsed for 2 minutes including 30 seconds shampoo.
# The diffusion testing protocol measures the ability for the dye to stay within the hair when the fibers are wet. In this test, dyed tresses of hair are prepared as indicated above and then separately immersed in a 1 litre beaker containing 900.0 g water. The beaker is placed in the center of a stir plate and the tress is attached to a clamping device that is used to lower the tress into the beaker. When in the beaker, the tress remains above the stir bar in the center of the beaker, the tress is lowered until the water line is at the top of the hair tress. The stir plate is turned on so that the stir bar would spin at approximately 100 rpm. All tresses are tested at the same spin rate. The tress is left in the beaker with stir bar rotating for three hours. After three hours, the tresses are removed. The absorbance spectrum of the solution is measured using a UV-vis spectrophotometer to characterize the amount of dye that diffused out of the hair into the solution at regular time interval. A full absorbance spectrum from 400 to 700 nm is measured and the absorbance at the peak maximum is measured for each case.
# The absorbance values for the C5 and C6 alkyldiaminopyrazole combinations are normalized and account for differences in starting dye concentrations in the hair fibers.
# The absorbance values for the C5 and C6 alkyldiaminopyrazole combinations are normalized and account for differences in starting dye concentrations in the hair fibers
Compound,"intercept of equation of line (absorbance of the solution) (FIG. 1, tint A)","intercept of equation of line (absorbance of the solution) (FIG. 2, tint B)"
"CCCCCn1ncc(N)c1N [C5, 4,5-diamino-1-pentylpyrazole]",0.0332,0.1551
"CCCCCCn1ncc(N)c1N [C6, 1-hexyl-4,5-diaminopyrazole]",0.0217,0.024
